From PubChem BioAssay AID493014 (National Center for Advancing Translational Sciences (NCATS), 2011)
Values joined by “and” are separate entries in the source; they are usually repeats but may differ in a detail not shown here. Equal entries are not always repeated. Some of the results follow. Shown are side measurements of this screen, not its main read-out; they come without a call. Compounds called inactive in the main read-out are mostly missing here. The note in brackets gives the kind of curve behind each potency; many fits are weak.

Test: qHTS Assay to Find Inhibitors of Chronic Active B-Cell Receptor Signaling
Conditions: ABC-DLBCL IkBa-CBG/CBR reporter, luminescence ratio (green luciferase fused to IkBa over red control in TMD8 lymphoma cells), 4 h
Outline: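 TMD8 ABC-DLBCL cells carrying doxycycline-inducible green luciferase fused to IkappaBalpha plus unfused red luciferase were exposed to compounds (up to 46 uM) for 4 hrs at 37C. Activity came from the overlap-corrected green/red luminescence ratio.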

[1] = measured here: CBR red luminescence, cell number
[2] = measured here: IkBa-CBG green luminescence

CC1(C)CC2CC(C)(CN2C(=O)CCCN2C(=O)c3ccccc3C2=O)C1 (stereo unspecified)
AC50 [1]: 3.66 µM [rising, full curve, poor fit]

COc1cc(OC)cc(C(=O)N/N=C/c2ccc(OC)c(COc3ccc4ccccc4c3)c2)c1
AC50 [1]: 3.55 µM [falling, partial curve, poor fit]

CCc1cc2c(=O)c(-c3cnn(-c4ccccc4)c3)coc2c(CN2CCOCC2)c1O
AC50 [1]: 2.82 µM [rising, full curve, poor fit]

COc1ccccc1-c1noc(CCC(=O)N2CCN(c3cc(C)ccc3C)CC2)n1
AC50 [1]: 23.1 µM [falling, single point]

COc1ccc(S(=O)(=O)N2CCCCCC2)cc1C(=O)NCCc1ccc(F)cc1
AC50 [1]: 20.6 µM [rising, partial curve, poor fit]

O=C(Cn1cc2c(n1)CCCCC2)Nc1ccccc1Cl
AC50 [1]: 14.1 µM [rising, partial curve, poor fit]

C(=N\NC1=Nc2cccc3cccc1c23)/c1cccnc1
AC50 [1]: 28.2 µM [falling, single point]

O=C(COC(=O)c1ccccc1NS(=O)(=O)c1ccc(Cl)cc1)NCc1ccccc1
AC50 [1]: 29.1 µM [falling, single point]

CCCCc1c(O)nc(SCC(=O)N2CCCCC2)[nH]c1=O
AC50 [1]: 0.794 µM [rising, full curve, poor fit]

CN(Cc1ccon1)Cc1cn(C)nc1-c1cccc(Cl)c1
AC50 [1]: 35.5 µM [falling, single point]

COc1ccccc1CC(=O)c1ccc(OCc2ccccc2)cc1
AC50 [1]: 0.0092 µM [rising, full curve, poor fit]

Nc1c2c(nc3ccc(Br)cc13)N(C1CCCCC1)CC2
AC50 [1]: 35.5 µM [falling, single point]

Cc1ccc2[nH]c3c(N4CCc5ccccc5C4)ncnc3c2c1
AC50 [1]: 22.4 µM [falling, partial curve, poor fit]

O=C(N/N=C/c1coc2ccc(Cl)cc2c1=O)c1ccc(O)cc1
AC50 [1]: 0.282 µM [falling, full curve, poor fit]

NC(=O)Nc1ccc(F)cc1
AC50 [1]: 0.731 µM [falling, full curve, poor fit]

O=C(Nc1ccc(-c2cn3c(n2)SCC3)cc1)c1ccc2ccccc2n1
AC50 [1]: 1 µM [falling, full curve]

FC(F)(F)c1cnc(NNC(=S)Nc2ccccc2Cl)c(Cl)c1
AC50 [1]: 16.4 µM [falling, single point]

C/C(CC1CC(COCC(C)C)OC1=O)=N\Nc1nc(-c2ccccc2)cs1 (stereo unspecified)
AC50 [1]: 4.61 µM [falling, partial curve]

COc1ccc(/C=C(/C#N)c2cccnc2)cc1OC
AC50 [1]: 20.6 µM [rising, partial curve] | AC50 [2]: 23.1 µM [falling, single point]

O=C(/C=C/c1cccc([N+](=O)[O-])c1)N(c1ccccn1)c1ccccn1
AC50 [1]: 3.55 µM [rising, partial curve, poor fit]

C=CCN1C=C/C(=C\C=C(C#N)C#N)c2ccccc21
AC50 [1]: 7.31 µM [rising, partial curve]

Cc1c(C(=O)O)sc2nc(/C=C/c3cccc(F)c3)[nH]c(=O)c12
AC50 [1]: 0.631 µM [falling, full curve]

Nc1nc(Cl)c2ncn(C3OC(CO)C(O)C3O)c2n1 (stereo unspecified)
AC50 [1]: 32.6 µM [rising, partial curve, poor fit]

CC(C)(C)c1cc(C(=O)CCN2CCOCC2)cc(C(C)(C)C)c1O
AC50 [1]: 11.2 µM [falling, partial curve, poor fit]

S=C1NCN(Cc2ccco2)CN1
AC50 [1]: 4.47 µM [falling, full curve, poor fit]

Nc1c(NC2CCCCC2)c2ccccc2oc1=O
AC50 [1]: 20.6 µM [falling, partial curve]

Oc1c(Br)cc(Br)cc1CNc1cccc2cccnc12
AC50 [1]: 12.6 µM [falling, partial curve]

CCCOc1ccc(-c2nnc(N)s2)cc1
AC50 [1]: 0.461 µM [rising, partial curve, poor fit]

CC1=C(C(N)=O)C(c2cccc(F)c2)n2nc(SCc3ccccc3)nc2N1 (stereo unspecified)
AC50 [1]: 3.98 µM [falling, full curve, poor fit]

COc1ccccc1C(=O)CC(=O)c1ccccc1
AC50 [1]: 1.12 µM [rising, full curve, poor fit]

COc1ccccc1NC(=O)NCC(=O)Nc1ccc(F)c(F)c1
AC50 [1]: 8.2 µM [falling, partial curve, poor fit]

COC(=O)NNC(=O)C1CCC(C)CC1 (stereo unspecified)
AC50 [1]: 13 µM [rising, partial curve, poor fit]

CN(C)N=Nc1nc2c([nH]1)c(=O)n(C)c(=O)n2C
AC50 [1]: 5.01 µM [falling, full curve]

CCOc1ccc(CCNc2ncnc3onc(-c4ccc(F)cc4)c23)cc1OCC
AC50 [1]: 10 µM [falling, partial curve, poor fit]

CN(C)c1oc(COc2ccccc2F)nc1C#N
AC50 [1]: 6.51 µM [rising, single point]

O=C(CN1CCOCC1)N/N=C/c1ccc(-c2cccc(Cl)c2Cl)o1
AC50 [1]: 3.98 µM [rising, single point]

CC1CCN(Cc2nnc(-c3cccc(Br)c3)o2)CC1
AC50 [1]: 7.08 µM [rising, full curve, poor fit]

COc1ccc(C(=O)Nc2ccc(S(=O)(=O)N3CCCCC3)cc2)cc1
AC50 [1]: 25.1 µM [falling, single point]

Cc1ccc(NC(=O)CSc2nn(-c3ccccc3)c(=S)s2)cc1S(=O)(=O)N(C)C
AC50 [1]: 29.1 µM [falling, partial curve]

CCOC(=O)c1c(CSc2ccccc2)n(C)c2ccc(O)c(CN3CCN(C)CC3)c12
AC50 [1]: 11.2 µM [falling, partial curve]

c1nc(NC2CCCCCC2)c2[nH]cnc2n1
AC50 [1]: 8.2 µM [falling, partial curve]

Cc1cccc(NC(=O)c2ccc([N+](=O)[O-])s2)c1C
AC50 [1]: 20.6 µM [falling, partial curve, poor fit]

CS(=O)(=O)c1ccc(Cl)c(NC(=O)CN2C(=O)C3CCCCC3C2=O)c1 (stereo unspecified)
AC50 [1]: 29.1 µM [rising, single point]

Nc1nc(C23CC4CC(CC(Cl)(C4)C2)C3)cs1
AC50 [1]: 35.5 µM [rising, single point]

O=C(Nc1nnc(SCc2c(Cl)cccc2Cl)s1)c1cccc([N+](=O)[O-])c1
AC50 [1]: 2.24 µM [rising, full curve, poor fit]

Cc1cccc(C(=O)Nc2ccc(C(=O)N/N=C/c3ccc(C)o3)cc2)c1
AC50 [1]: 10 µM [falling, partial curve, poor fit]

COc1ccc(CCNC(=O)CN(c2ccc(OC)c(OC)c2)S(C)(=O)=O)cc1OC
AC50 [1]: 6.51 µM [rising, single point]

COc1cc(/C=C2/NC(=O)NC2=O)cc(Br)c1OCc1ccccc1
AC50 [1]: 6.31 µM [rising, full curve]

CC(Sc1nc2nn(-c3ccccc3)c(=O)c-2c2n1CCCCC2)C(N)=O (stereo unspecified)
AC50 [1]: 6.51 µM [falling, single point]

CCN1C(=O)c2cccc3c(S(=O)(=O)Nc4ccccn4)ccc1c23
AC50 [1]: 31.6 µM [rising, single point]

C[C@H](CO)N1C[C@H](C)[C@@H](CN(C)S(=O)(=O)c2cccs2)Oc2ccc(NC(=O)CCC(F)(F)F)cc2C1=O
AC50 [1]: 0.92 µM [rising, full curve, poor fit]

O=C(CSc1nc2ncc(Cl)cc2[nH]1)Nc1cccc(F)c1
AC50 [1]: 7.08 µM [falling, partial curve]

FC(F)(F)Oc1ccc(Nc2nc(N3CCOCC3)nc(N3CCOCC3)n2)cc1
AC50 [1]: 35.5 µM [rising, single point]

O=C(Cc1sc(Nc2ccccc2)nc1-c1ccccc1)NCc1ccccn1
AC50 [1]: 11.2 µM [falling, partial curve]

O=C1C=C(c2ccccc2)OC(=O)C1C(=O)c1ccccc1 (stereo unspecified)
AC50 [1]: 11.6 µM [falling, partial curve, poor fit] and 7.08 µM [falling, partial curve]

Cc1sc(NC(=O)c2c(F)cccc2F)nc1-c1ccccc1
AC50 [1]: 2.24 µM [falling, partial curve]

O=c1cnnc(Nc2cccc(C(F)(F)F)c2)[nH]1
AC50 [1]: 22.4 µM [falling, partial curve, poor fit]

C#CCNc1ccc(C(=O)OCC)cc1
AC50 [1]: 14.1 µM [rising, single point]

CCOc1ccc2c(c1)c1nc3ccccc3nc1n2C
AC50 [1]: 0.447 µM [falling, full curve, poor fit]

CC1Cc2ccccc2N1C(=O)c1ccc(N2CCCCC2)c([N+](=O)[O-])c1 (stereo unspecified)
AC50 [2]: 20.6 µM [rising, partial curve, poor fit]

Cc1ccc(C2=Nc3ccccc3N=C(c3ccc([N+](=O)[O-])cc3)C2)c(O)c1
AC50 [1]: 8.2 µM [rising, partial curve, poor fit]

c1ccc(CSc2nnc([C@@H]3CCCN3)o2)cc1
AC50 [1]: 11.2 µM [rising, partial curve]

O=C(O)c1cc(NC(=O)c2cccc(C(=O)Nc3cc(C(=O)O)cc(C(=O)O)c3)c2)cc(C(=O)O)c1
AC50 [1]: 6.31 µM [falling, single point]

COc1ccc(N(C)S(=O)(=O)c2cccc(C(=O)OCC(=O)c3c(N)n(C)c(=O)n(C)c3=O)c2)cc1
AC50 [1]: 16.4 µM [falling, single point]

CCC(=NC(C)c1ccccc1)c1c(O)n(C)c(=O)n(C)c1=O (stereo unspecified)
AC50 [1]: 6.51 µM [falling, single point]
